In article doi:10.1101/2020.05.20.107664:
Numbering of substitutions follows the chain as printed. Like-named read-outs stand apart in the source and are kept apart here. No constants are given. Whether binding was seen depends on the method and setting. In cells and extracts the contact can be indirect. A result given as binding can be weak or reduced; the word gives no strength. Sequences can lack the tags named with a protein.

Assays:
Test in all cases: co-IP
[1] = target: T1, wild-type α-COP (α-COP-FLAG), stably expressed in MEFs (mouse) (UniProt Q8CIE6)
T1 sequence: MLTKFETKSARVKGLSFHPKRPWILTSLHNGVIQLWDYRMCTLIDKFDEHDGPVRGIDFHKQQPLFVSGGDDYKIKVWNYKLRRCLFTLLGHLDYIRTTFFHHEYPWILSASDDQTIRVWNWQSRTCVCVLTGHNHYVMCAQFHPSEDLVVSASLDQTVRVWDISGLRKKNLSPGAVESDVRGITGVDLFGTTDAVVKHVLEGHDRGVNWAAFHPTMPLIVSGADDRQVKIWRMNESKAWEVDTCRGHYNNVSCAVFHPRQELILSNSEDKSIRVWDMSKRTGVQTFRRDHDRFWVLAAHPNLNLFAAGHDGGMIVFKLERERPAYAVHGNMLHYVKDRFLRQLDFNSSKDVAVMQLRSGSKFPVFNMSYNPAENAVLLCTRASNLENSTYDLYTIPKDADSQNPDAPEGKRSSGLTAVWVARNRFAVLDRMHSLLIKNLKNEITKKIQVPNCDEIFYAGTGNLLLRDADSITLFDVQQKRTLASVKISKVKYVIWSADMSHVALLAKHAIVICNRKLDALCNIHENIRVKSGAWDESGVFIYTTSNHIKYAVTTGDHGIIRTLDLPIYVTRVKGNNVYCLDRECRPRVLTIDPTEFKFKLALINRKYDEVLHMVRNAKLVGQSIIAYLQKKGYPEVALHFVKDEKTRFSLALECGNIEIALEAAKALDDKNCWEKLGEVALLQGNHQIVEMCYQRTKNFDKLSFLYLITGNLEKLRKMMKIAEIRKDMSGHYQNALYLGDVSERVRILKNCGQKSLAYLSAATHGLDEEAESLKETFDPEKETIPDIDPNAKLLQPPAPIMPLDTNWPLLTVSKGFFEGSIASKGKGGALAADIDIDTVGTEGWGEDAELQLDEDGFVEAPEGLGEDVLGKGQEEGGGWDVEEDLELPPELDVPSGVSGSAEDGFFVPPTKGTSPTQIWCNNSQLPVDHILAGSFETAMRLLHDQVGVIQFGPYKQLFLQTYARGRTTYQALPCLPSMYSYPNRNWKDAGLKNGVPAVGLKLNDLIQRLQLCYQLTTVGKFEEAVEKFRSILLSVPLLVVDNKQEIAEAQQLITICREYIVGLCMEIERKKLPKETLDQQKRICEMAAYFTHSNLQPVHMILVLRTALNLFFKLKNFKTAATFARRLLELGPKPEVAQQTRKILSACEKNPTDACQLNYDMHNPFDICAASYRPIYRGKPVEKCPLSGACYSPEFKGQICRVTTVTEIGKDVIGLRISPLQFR

[2] = target: T2, α-COP variant E241K (α-COP-FLAG), stably expressed in MEFs (mouse) (UniProt Q8CIE6)
T2 sequence: T1 sequence with E241K

[3] = target: T1, wild-type α-COP (α-COP-FLAG), stably expressed in MEFs (mouse); remark: listed apart in the source

binding [1]: binds | binding [2]: binds | binding [3]: binds
Substance: EGFP-mouse STING, stably expressed in MEFs
